Values of other authors in patent US20030031715A1, “Pharmaceutical applications of hydrotropic agents, polymers thereof, and hydrogels thereof” (priority 2000, published 2003).

Conditions: log (CO/CW), octanol and water; cited from earlier work

SMILES: C(=C\c1ccccc1)/CN1CCN(C(c2ccccc2)c2ccccc2)CC1 [Cinnarizine]
- Partition Coefficient: 4.50
